Experimental data published in paper PMC9844853.
These are yes or no findings as the source states them, for the method shown. Binding seen in cells or lysates may run through a third protein. A yes stands for co-enrichment or nearness to the bait. Other partners may have been found. For some assays here: No binding means not detected with the bait.

The chains behind the UniProt entries cited, without tags or fusion partners.
UniProt P51532: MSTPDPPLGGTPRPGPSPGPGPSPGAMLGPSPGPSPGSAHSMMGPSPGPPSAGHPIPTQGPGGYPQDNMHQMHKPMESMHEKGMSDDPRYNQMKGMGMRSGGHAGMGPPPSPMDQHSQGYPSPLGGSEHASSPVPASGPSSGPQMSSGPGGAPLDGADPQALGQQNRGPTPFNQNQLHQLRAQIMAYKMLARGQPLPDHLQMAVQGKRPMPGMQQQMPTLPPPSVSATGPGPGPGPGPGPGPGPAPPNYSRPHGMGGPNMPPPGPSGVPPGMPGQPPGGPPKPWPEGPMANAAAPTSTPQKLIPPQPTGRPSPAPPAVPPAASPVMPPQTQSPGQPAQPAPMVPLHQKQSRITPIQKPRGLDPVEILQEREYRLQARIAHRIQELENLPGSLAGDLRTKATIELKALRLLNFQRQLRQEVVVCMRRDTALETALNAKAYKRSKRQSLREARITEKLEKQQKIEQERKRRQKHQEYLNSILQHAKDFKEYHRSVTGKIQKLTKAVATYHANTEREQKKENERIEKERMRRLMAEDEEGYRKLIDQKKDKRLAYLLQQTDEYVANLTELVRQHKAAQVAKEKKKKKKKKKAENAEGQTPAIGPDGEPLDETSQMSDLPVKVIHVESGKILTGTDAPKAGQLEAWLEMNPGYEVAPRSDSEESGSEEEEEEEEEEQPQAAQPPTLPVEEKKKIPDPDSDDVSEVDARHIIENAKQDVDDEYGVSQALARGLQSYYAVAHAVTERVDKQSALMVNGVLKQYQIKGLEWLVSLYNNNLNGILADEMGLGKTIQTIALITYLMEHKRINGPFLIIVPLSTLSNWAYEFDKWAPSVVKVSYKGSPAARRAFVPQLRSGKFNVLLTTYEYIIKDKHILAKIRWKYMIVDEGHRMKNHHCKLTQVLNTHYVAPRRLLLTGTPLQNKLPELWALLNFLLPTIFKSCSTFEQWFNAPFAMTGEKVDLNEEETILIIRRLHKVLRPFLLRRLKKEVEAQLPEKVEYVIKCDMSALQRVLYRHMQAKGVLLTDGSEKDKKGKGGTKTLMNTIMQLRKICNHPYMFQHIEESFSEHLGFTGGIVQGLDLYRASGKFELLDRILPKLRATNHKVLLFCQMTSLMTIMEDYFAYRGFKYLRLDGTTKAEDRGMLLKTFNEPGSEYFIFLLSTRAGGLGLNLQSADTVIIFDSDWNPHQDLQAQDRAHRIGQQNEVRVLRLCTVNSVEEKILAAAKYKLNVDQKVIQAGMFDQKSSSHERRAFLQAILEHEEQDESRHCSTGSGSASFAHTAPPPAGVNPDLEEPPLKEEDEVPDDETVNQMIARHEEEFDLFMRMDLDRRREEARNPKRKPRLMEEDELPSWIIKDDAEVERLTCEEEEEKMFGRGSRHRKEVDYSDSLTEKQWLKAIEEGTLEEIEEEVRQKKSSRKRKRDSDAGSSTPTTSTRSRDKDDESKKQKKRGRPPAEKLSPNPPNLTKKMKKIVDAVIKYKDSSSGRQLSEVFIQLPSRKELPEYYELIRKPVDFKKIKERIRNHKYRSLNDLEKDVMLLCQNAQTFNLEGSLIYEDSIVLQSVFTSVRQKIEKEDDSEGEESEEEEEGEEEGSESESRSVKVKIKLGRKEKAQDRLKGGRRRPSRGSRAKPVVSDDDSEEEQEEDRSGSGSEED
UniProt P32243: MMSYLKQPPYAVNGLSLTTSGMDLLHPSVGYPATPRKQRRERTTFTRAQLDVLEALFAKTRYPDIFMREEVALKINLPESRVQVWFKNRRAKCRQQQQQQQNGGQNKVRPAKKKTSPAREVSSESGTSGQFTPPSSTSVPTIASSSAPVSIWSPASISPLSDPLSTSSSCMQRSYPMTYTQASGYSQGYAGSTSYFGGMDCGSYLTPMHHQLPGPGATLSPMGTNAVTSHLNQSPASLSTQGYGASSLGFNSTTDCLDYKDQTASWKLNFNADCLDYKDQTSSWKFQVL
UniProt O75030: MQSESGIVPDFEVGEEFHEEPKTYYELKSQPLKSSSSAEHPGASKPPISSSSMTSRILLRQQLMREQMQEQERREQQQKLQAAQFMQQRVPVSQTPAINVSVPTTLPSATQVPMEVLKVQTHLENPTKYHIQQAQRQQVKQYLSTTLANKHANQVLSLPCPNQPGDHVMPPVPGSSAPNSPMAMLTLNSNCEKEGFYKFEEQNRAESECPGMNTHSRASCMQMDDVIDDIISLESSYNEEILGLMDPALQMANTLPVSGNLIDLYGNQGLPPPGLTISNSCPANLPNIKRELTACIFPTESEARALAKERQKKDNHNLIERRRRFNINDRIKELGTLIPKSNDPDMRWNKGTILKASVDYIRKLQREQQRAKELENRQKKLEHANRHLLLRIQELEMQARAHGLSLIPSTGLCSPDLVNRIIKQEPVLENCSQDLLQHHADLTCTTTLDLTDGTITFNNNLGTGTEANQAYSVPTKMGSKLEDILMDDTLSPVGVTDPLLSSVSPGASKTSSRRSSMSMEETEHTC
UniProt Q969G3: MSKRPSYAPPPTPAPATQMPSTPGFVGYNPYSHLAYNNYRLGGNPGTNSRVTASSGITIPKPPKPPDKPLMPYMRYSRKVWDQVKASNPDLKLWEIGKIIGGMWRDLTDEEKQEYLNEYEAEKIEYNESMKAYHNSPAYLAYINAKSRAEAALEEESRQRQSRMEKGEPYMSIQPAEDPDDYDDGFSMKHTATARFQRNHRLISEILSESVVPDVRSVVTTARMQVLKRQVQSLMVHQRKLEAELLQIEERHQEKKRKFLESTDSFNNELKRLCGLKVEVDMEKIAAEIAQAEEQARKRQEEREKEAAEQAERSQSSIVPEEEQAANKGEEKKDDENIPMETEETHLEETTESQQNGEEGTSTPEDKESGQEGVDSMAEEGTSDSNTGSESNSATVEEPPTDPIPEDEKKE
UniProt Q92922: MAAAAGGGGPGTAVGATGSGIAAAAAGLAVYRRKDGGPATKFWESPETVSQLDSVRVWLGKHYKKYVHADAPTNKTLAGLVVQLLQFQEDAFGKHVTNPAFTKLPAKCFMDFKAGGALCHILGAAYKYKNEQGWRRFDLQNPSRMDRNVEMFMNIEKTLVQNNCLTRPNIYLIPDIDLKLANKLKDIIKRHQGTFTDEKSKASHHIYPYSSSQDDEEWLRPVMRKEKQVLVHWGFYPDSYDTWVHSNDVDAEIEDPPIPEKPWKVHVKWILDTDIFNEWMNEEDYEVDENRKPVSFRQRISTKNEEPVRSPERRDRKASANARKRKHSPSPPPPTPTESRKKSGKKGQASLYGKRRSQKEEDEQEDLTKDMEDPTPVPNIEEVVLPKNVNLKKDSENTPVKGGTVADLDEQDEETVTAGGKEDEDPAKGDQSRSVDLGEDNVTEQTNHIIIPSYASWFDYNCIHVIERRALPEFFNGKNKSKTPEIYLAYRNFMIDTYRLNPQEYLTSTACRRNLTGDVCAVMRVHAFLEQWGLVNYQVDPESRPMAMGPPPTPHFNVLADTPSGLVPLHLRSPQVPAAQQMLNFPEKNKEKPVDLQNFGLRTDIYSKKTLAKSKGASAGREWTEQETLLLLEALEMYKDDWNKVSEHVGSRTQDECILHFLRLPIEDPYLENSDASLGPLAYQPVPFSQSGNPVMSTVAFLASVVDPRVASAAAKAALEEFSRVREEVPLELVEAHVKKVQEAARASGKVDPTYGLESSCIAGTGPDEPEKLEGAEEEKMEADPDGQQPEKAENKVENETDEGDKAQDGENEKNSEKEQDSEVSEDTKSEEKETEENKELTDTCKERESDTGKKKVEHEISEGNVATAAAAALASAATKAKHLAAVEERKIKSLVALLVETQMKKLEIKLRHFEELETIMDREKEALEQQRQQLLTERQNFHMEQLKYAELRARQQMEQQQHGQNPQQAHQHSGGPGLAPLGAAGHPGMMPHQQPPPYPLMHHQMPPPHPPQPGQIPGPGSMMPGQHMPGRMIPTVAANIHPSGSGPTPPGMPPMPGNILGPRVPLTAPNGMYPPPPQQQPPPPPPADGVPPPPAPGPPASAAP
UniProt Q92925: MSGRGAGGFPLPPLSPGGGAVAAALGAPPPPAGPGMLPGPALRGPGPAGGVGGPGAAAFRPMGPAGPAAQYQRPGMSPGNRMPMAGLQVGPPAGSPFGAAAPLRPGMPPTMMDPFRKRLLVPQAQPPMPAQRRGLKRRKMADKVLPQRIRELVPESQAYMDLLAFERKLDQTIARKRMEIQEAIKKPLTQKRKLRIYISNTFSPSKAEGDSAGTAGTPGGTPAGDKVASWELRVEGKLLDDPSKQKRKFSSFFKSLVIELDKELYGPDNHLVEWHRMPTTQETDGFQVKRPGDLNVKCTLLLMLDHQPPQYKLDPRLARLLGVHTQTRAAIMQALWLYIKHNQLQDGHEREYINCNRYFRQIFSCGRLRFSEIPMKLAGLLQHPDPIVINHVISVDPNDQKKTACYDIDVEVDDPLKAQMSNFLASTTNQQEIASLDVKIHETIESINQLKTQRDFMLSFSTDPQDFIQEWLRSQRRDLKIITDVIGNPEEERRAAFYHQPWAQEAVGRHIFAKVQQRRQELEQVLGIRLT
UniProt Q8TAQ2: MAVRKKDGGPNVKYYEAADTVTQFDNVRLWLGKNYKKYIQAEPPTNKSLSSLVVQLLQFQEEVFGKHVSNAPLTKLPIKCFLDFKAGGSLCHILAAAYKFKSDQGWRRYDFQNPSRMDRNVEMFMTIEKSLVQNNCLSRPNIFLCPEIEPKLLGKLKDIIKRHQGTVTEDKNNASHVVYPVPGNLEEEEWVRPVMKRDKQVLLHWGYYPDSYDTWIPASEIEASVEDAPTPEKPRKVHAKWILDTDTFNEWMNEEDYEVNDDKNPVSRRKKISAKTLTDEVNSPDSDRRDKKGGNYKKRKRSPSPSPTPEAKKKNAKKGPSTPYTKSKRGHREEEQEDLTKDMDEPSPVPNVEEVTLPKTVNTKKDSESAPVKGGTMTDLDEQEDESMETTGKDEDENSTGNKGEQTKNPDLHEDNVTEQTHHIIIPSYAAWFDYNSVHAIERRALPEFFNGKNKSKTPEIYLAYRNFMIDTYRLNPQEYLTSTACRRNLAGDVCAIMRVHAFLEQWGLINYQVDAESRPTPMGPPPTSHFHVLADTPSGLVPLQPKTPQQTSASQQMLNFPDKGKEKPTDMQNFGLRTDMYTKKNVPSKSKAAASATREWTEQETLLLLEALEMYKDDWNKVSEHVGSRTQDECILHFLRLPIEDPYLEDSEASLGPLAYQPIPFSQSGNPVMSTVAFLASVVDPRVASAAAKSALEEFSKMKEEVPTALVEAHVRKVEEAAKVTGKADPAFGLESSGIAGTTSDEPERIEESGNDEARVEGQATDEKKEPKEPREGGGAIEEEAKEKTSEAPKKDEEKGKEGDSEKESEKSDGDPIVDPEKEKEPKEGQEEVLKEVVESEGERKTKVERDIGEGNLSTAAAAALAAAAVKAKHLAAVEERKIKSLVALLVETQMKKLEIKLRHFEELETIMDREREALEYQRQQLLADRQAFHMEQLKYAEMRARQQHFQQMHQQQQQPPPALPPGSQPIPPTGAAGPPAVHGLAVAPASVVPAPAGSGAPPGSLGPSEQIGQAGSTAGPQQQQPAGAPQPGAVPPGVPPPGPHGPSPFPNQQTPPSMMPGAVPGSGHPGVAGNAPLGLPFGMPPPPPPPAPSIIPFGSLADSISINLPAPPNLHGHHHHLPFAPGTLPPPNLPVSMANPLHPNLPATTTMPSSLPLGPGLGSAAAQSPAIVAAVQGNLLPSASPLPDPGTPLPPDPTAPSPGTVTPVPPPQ
UniProt Q96GM5: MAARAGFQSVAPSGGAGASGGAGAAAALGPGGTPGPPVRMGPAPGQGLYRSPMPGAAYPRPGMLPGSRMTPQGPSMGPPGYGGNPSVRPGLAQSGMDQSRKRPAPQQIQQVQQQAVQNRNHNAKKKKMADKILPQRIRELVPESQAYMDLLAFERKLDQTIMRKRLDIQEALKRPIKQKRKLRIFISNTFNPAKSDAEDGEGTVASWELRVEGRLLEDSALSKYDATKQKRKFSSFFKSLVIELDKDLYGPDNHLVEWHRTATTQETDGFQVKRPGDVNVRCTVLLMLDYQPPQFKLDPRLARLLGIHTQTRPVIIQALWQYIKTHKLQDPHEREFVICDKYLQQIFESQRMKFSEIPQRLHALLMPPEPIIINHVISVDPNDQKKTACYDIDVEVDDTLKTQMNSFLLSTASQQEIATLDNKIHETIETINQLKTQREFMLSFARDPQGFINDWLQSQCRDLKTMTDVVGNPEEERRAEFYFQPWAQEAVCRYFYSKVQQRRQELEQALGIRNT

T1: LHX2 (human (endogenous in hES-RPE)) (UniProt P50458)
T1 sequence: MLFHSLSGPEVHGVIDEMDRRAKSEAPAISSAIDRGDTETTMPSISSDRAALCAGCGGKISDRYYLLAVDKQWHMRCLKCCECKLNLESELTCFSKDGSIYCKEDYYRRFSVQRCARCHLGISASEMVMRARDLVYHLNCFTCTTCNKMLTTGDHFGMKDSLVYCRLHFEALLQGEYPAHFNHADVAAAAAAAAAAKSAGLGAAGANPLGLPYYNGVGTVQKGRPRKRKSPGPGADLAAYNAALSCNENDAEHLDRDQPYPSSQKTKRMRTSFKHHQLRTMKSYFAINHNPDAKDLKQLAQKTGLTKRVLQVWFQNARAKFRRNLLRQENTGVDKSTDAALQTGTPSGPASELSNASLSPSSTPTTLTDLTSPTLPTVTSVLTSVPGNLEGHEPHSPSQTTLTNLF

B1: SSBP2 (single-strand-binding protein 2) (protein, UniProt P81877 1-361)
chain: MYGKGKSNSSAVPSDSQAREKLALYVYEYLLHVGAQKSAQTFLSEIRWEKNITLGEPPGFLHSWWCVFWDLYCAAPERRETCEHSSEAKAFHDYSAAAAPSPVLGNIPPGDGMPVGPVPPGFFQPFMSPRYPGGPRPPLRIPNQALGGVPGSQPLLPSGMDPTRQQGHPNMGGPMQRMTPPRGMVPLGPQNYGGAMRPPLNALGGPGMPGMNMGPGGGRPWPNPTNANSIPYSSASPGNYVGPPGGGGPPGTPIMPSPADSTNSGDNMYTLMNAVPPGPNRPNFPMGPGSDGPMGGLGGMESHHMNGSLGSGDMDSISKNSPNNMSLSNQPGTPRDDGEMGGNFLNPFQSESYSPSMTMSV
B2: LHX2 (protein, UniProt P50458 1-406)
chain: T1 sequence
B3: LDB2 (protein, UniProt O43679 1-373)
chain: MSSTPHDPFYSSPFGPFYRRHTPYMVQPEYRIYEMNKRLQSRTEDSDNLWWDAFATEFFEDDATLTLSFCLEDGPKRYTIGRTLIPRYFSTVFEGGVTDLYYILKHSKESYHNSSITVDCDQCTMVTQHGKPMFTKVCTEGRLILEFTFDDLMRIKTWHFTIRQYRELVPRSILAMHAQDPQVLDQLSKNITRMGLTNFTLNYLRLCVILEPMQELMSRHKTYNLSPRDCLKTCLFQKWQRMVAPPAEPTRQPTTKRRKRKNSTSSTSNSSAGNNANSTGSKKKTTAANLSLSSQVPDVMVVGEPTLMGGEFGDEDERLITRLENTQYDAANGMDDEEDFNNSPALGNNSPWNSKPPATQETKSENPPPQASQ

These molecules were tested against BRG1 (SMARCA4) (human (endogenous in hES-RPE)) (UniProt P51532) (assay: affinity purification with mass spectrometry; BRG1 pulldown (IP-MS) from hES-RPE compared to nonspecific IgG; the methods do not describe this IP).

binding	Molecule
binds	OTX2 (from UniProt P32243 1-289)

The molecules below were run against OTX2 (human (endogenous in hES-RPE)) (UniProt P32243) (assay: affinity purification with mass spectrometry; endogenous OTX2 or LHX2 immuno-purified with rabbit anti-OTX2 or anti-Lhx2/LH2 antibody and protein-A agarose from benzonase-treated nuclear lysate of hES-RPE (150 mM NaCl, 50 mM Tris pH 7.5, 1% NP40), overnight 4°C; compared to control IgG; 3 repeats; label-free LC-MS-MS).

binding	Molecule
binds	MITF (microphthalmia-associated TF) (from UniProt O75030 1-526)
binds	BAF57 (SMARCE1) (from UniProt Q969G3 1-411)
binds	BAF155 (SMARCC1) (from UniProt Q92922 1-1105)
binds	BRM (SMARCA2) (from UniProt P51531 1-1590)
binds	BAF60b (SMARCD2) (from UniProt Q92925 1-531)
binds	BAF170 (SMARCC2) (from UniProt Q8TAQ2 1-1214)
binds	BAF60a (SMARCD1) (from UniProt Q96GM5 1-515)
binds	LDB1 (from UniProt Q86U70 1-411)
binds	BRG1 (SMARCA4) (from UniProt P51532 1-1647)
binds	B1
no binding	B2
binds	B3

What follows are molecules tested against T1, LHX2 (human (endogenous in hES-RPE)) in the same assay as above.

binding	Molecule
binds	LDB1 (from UniProt Q86U70 1-411)
no binding	OTX2 (from UniProt P32243 1-289)
binds	B1
binds	B3
